Source: the supplement of paper PMC6078165
± gives the standard deviation of the averaged measurements. The reference is the same well before dosing, and untreated signal decays as well.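 Fibroblast labels name human fibroblasts: mostly primary ones from tissues such as uterus (C12385, HUF), lung (H6013), bone (Hs27A), adrenal (HADF) and skin (WS1), plus mammary HMF and breast cancer-associated Hs343T. The cancer cells are basal-like or mesenchymal-like triple-negative breast cancer lines. The paper calls a changed response a hit when it shifts by more than 3x the replicate standard deviation. The tissue of the other fibroblasts is not given here.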

System: Hs578T
Experiment: relative JC-1 red fluorescence (viability) vs pre-drug, coculture with fibroblast (fraction); higher = more viable cancer cells
Protocol: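 JC-1 labelled TNBC cells cocultured 1:1 (1,500 cells each) with CellTrace Violet stained primary or stromal fibroblasts in 384-well plates in FluoroBrite medium, treated with one of 42 anticancer drugs at 0.1, 1, 10 or 100 uM. JC-1 red fluorescence (mitochondrial integrity in cancer cells only) was read by plate reader every 8 h for 72 h. Values are normalised to each well's pre-drug value. The stock of one drug was tenfold lower, so its dose labels may be too high.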

COc1cc([C@@H]2c3cc4c(cc3[C@@H](O[C@@H]3O[C@@H]5CO[C@@H](c6cccs6)O[C@H]5[C@H](O)[C@H]3O)[C@H]3COC(=O)[C@H]23)OCO4)cc(OC)c1O [Teniposide]
relative JC-1 red fluorescence
Conditions | 8 h | 16 h | 24 h | 32 h | 40 h | 48 h | 56 h | 64 h | 72 h
10 µM | 0.865 ± 0.044 | 0.807 ± 0.051 | 0.782 ± 0.026 | 0.7398 ± 0.0026 | 0.6882 ± 0.0039 | 0.661 ± 0.011 | 0.649 ± 0.028 | 0.628 ± 0.026 | 0.639 ± 0.048
100 µM | 0.936 ± 0.024 | 0.9 ± 0.057 | 0.916 ± 0.062 | 0.93 ± 0.074 | 0.902 ± 0.092 | 0.885 ± 0.1 | 0.896 ± 0.12 | 0.879 ± 0.12 | 0.88 ± 0.14

relative JC-1 red fluorescence
Conditions | 8 h | 16 h | 24 h | 32 h | 40 h | 48 h | 56 h | 64 h | 72 h
10 µM, coculture fibroblast: C12385 | 0.8635 ± 0.0042 | 0.803 ± 0.016 | 0.799 ± 0.045 | 0.727 ± 0.015 | 0.649 ± 0.04 | 0.623 ± 0.049 | 0.593 ± 0.049 | 0.584 ± 0.054 | 0.577 ± 0.059
10 µM, coculture fibroblast: H6013 | 0.923 ± 0.012 | 0.936 ± 0.015 | 0.935 ± 0.013 | 0.913 ± 0.025 | 0.85 ± 0.054 | 0.819 ± 0.062 | 0.81 ± 0.072 | 0.785 ± 0.093 | 0.766 ± 0.11
10 µM, coculture fibroblast: H6019 | 0.806 ± 0.017 | 0.749 ± 0.026 | 0.779 ± 0.041 | 0.7 ± 0.034 | 0.657 ± 0.036 | 0.636 ± 0.041 | 0.632 ± 0.037 | 0.631 ± 0.034 | 0.622 ± 0.033
10 µM, coculture fibroblast: H6076 | 0.96 ± 0.054 | 0.917 ± 0.03 | 0.886 ± 0.0073 | 0.853 ± 0.031 | 0.757 ± 0.05 | 0.748 ± 0.084 | 0.705 ± 0.1 | 0.689 ± 0.1 | 0.685 ± 0.1
10 µM, coculture fibroblast: H6231 | 0.92 ± 0.035 | 0.866 ± 0.026 | 0.831 ± 0.018 | 0.789 ± 0.015 | 0.702 ± 0.0014 | 0.662 ± 0.0081 | 0.629 ± 0.0081 | 0.624 ± 0.011 | 0.627 ± 0.0071
10 µM, coculture fibroblast: HADF | 0.894 ± 0.047 | 0.9 ± 0.059 | 0.864 ± 0.055 | 0.824 ± 0.068 | 0.784 ± 0.054 | 0.753 ± 0.057 | 0.725 ± 0.052 | 0.709 ± 0.042 | 0.672 ± 0.014
10 µM, coculture fibroblast: HCFa | 0.873 ± 0.034 | 0.869 ± 0.014 | 0.844 ± 0.019 | 0.802 ± 0.038 | 0.766 ± 0.035 | 0.772 ± 0.055 | 0.752 ± 0.071 | 0.762 ± 0.077 | 0.743 ± 0.071
10 µM, coculture fibroblast: HCPF | 0.927 ± 0.056 | 0.883 ± 0.071 | 0.862 ± 0.078 | 0.809 ± 0.069 | 0.742 ± 0.061 | 0.704 ± 0.065 | 0.686 ± 0.072 | 0.659 ± 0.085 | 0.643 ± 0.077
10 µM, coculture fibroblast: HHSteC | 0.89 ± 0.019 | 0.841 ± 0.029 | 0.799 ± 0.044 | 0.732 ± 0.062 | 0.64 ± 0.089 | 0.593 ± 0.089 | 0.562 ± 0.091 | 0.549 ± 0.095 | 0.52 ± 0.1
10 µM, coculture fibroblast: HMF | 0.897 ± 0.032 | 0.845 ± 0.039 | 0.81 ± 0.045 | 0.805 ± 0.061 | 0.728 ± 0.068 | 0.69 ± 0.078 | 0.661 ± 0.071 | 0.64 ± 0.058 | 0.629 ± 0.066
10 µM, coculture fibroblast: HPFa | 0.9324 ± 0.002 | 0.907 ± 0.019 | 0.872 ± 0.022 | 0.8 ± 0.075 | 0.72 ± 0.11 | 0.674 ± 0.14 | 0.635 ± 0.14 | 0.61 ± 0.15 | 0.576 ± 0.14
10 µM, coculture fibroblast: HUF | 0.8575 ± 0.0028 | 0.779 ± 0.025 | 0.796 ± 0.054 | 0.708 ± 0.073 | 0.656 ± 0.083 | 0.632 ± 0.099 | 0.605 ± 0.1 | 0.603 ± 0.12 | 0.606 ± 0.14
10 µM, coculture fibroblast: Hs27A | 0.9208 ± 0.0053 | 0.917 ± 0.035 | 0.907 ± 0.06 | 0.867 ± 0.081 | 0.801 ± 0.074 | 0.79 ± 0.074 | 0.742 ± 0.068 | 0.727 ± 0.048 | 0.685 ± 0.045
10 µM, coculture fibroblast: Hs343T | 0.9 ± 0.035 | 0.819 ± 0.048 | 0.785 ± 0.023 | 0.758 ± 0.019 | 0.692 ± 0.042 | 0.663 ± 0.04 | 0.63 ± 0.049 | 0.618 ± 0.05 | 0.619 ± 0.059
10 µM, coculture fibroblast: WS1 | 0.807 ± 0.0091 | 0.775 ± 0.037 | 0.79 ± 0.074 | 0.704 ± 0.069 | 0.662 ± 0.092 | 0.665 ± 0.11 | 0.649 ± 0.12 | 0.659 ± 0.13 | 0.658 ± 0.13
100 µM, coculture fibroblast: C12385 | 0.921 ± 0.038 | 0.917 ± 0.035 | 0.9214 ± 0.006 | 0.918 ± 0.014 | 0.884 ± 0.025 | 0.889 ± 0.032 | 0.878 ± 0.024 | 0.8783 ± 0.0036 | 0.863 ± 0.015
100 µM, coculture fibroblast: H6013 | 0.947 ± 0.036 | 0.736 ± 0.043 | 0.794 ± 0.045 | 0.809 ± 0.059 | 0.845 ± 0.11 | 0.766 ± 0.096 | 0.872 ± 0.049 | 0.845 ± 0.048 | 0.938 ± 0.03
100 µM, coculture fibroblast: H6019 | 0.898 ± 0.046 | 0.849 ± 0.0094 | 0.793 ± 0.11 | 0.821 ± 0.05 | 0.791 ± 0.054 | 0.869 ± 0.096 | 0.815 ± 0.042 | 0.815 ± 0.027 | 0.799 ± 0.03
100 µM, coculture fibroblast: H6076 | 0.722 ± 0.011 | 0.778 ± 0.04 | 0.747 ± 0.061 | 0.7106 ± 0.0063 | 0.824 ± 0.016 | 0.89 ± 0.15 | 0.937 ± 0.047 | 0.832 ± 0.14 | 0.887 ± 0.072
100 µM, coculture fibroblast: H6231 | 0.893 ± 0.11 | 0.9449 ± 0.0065 | 0.95 ± 0.0098 | 0.943 ± 0.02 | 0.923 ± 0.016 | 0.945 ± 0.023 | 0.937 ± 0.025 | 0.9385 ± 0.004 | 0.929 ± 0.029
100 µM, coculture fibroblast: HADF | 0.873 ± 0.15 | 0.873 ± 0.13 | 0.934 ± 0.068 | 0.755 ± 0.024 | 0.902 ± 0.042 | 0.847 ± 0.062 | 0.956 ± 0.047 | 0.87 ± 0.15 | 0.87 ± 0.11
100 µM, coculture fibroblast: HCFa | 0.872 ± 0.14 | 0.816 ± 0.1 | 0.794 ± 0.13 | 0.778 ± 0.096 | 0.936 ± 0.09 | 0.798 ± 0.095 | 0.948 ± 0.039 | 0.927 ± 0.061 | 0.919 ± 0.0094
100 µM, coculture fibroblast: HCPF | 0.874 ± 0.081 | 0.922 ± 0.067 | 0.908 ± 0.049 | 0.889 ± 0.046 | 0.852 ± 0.018 | 0.861 ± 0.03 | 0.872 ± 0.068 | 0.835 ± 0.077 | 0.83 ± 0.073
100 µM, coculture fibroblast: HHSteC | 0.87 ± 0.095 | 0.842 ± 0.09 | 0.855 ± 0.041 | 0.815 ± 0.044 | 0.738 ± 0.039 | 0.835 ± 0.11 | 0.798 ± 0.025 | 0.93 ± 0.061 | 0.842 ± 0.15
100 µM, coculture fibroblast: HMF | 0.914 ± 0.057 | 0.956 ± 0.046 | 0.942 ± 0.049 | 0.935 ± 0.068 | 0.889 ± 0.07 | 0.859 ± 0.088 | 0.879 ± 0.075 | 0.863 ± 0.062 | 0.875 ± 0.078
100 µM, coculture fibroblast: HPFa | 0.906 ± 0.12 | 0.842 ± 0.2 | 0.926 ± 0.1 | 0.9331 ± 0.004 | 0.822 ± 0.13 | 0.835 ± 0.11 | 0.871 ± 0.15 | 0.848 ± 0.17 | 0.866 ± 0.091
100 µM, coculture fibroblast: HUF | 0.899 ± 0.011 | 0.8364 ± 0.0028 | 0.8689 ± 0.0082 | 0.8 ± 0.0037 | 0.771 ± 0.014 | 0.769 ± 0.044 | 0.748 ± 0.052 | 0.774 ± 0.052 | 0.782 ± 0.072
100 µM, coculture fibroblast: Hs27A | 0.792 ± 0.029 | 0.796 ± 0.043 | 0.792 ± 0.099 | 0.89 ± 0.053 | 0.924 ± 0.0035 | 0.903 ± 0.047 | 0.829 ± 0.11 | 0.845 ± 0.047 | 0.862 ± 0.11
100 µM, coculture fibroblast: Hs343T | 0.9761 ± 0.0077 | 0.933 ± 0.021 | 0.942 ± 0.026 | 0.952 ± 0.043 | 0.905 ± 0.038 | 0.881 ± 0.052 | 0.857 ± 0.061 | 0.842 ± 0.07 | 0.85 ± 0.087
100 µM, coculture fibroblast: WS1 | 0.858 ± 0.014 | 0.804 ± 0.018 | 0.851 ± 0.011 | 0.8077 ± 0.0059 | 0.81 ± 0.0066 | 0.853 ± 0.027 | 0.859 ± 0.044 | 0.9 ± 0.058 | 0.901 ± 0.07
